Experimental data published in patent US10696949B2, “Systems and methods for canine liver modeling” (Hepregen Corporation, priority 2015, dated 2020).
At least one compound was matched to its structure with a doubt left.

System: HGF
Test: HGF secretion in standard HepatoPac co-culture under chemical inhibition
Assay type: cell-based
Conditions: standard HepatoPac format
Description: Hepatocyte growth factor (HGF) was implicated as one of the contributing factors causing dog hepatocyte hypertrophy and motility in the co-culture (data not shown). […] In summation, chemical inhibition (for example, via dexamethasone and TGFB2) of HGF secretion in the standard HepatoPac™ format is sufficient to abrogate hepatocyte hypertrophy.

C[C@@H]1C[C@H]2[C@@H]3CCC4=CC(=O)C=C[C@]4(C)[C@@]3(F)[C@@H](O)C[C@]2(C)[C@@]1(O)C(=O)CO [dexamethasone]
HGF level (secretion): HGF knockdown
